Experimental data published in the supplement of paper PMC4604168 (melanoma cell lines).
This is one part of the list. Repeats are few or missing, and single values can be far off.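 The apoptosis fraction was the count of cleaved-PARP antibody-stained nuclei relative to all DNA-stained nuclei, imaged in 1,536-well plates. Screening doses were set so most cells survived, and baseline and induced cleaved-PARP levels vary greatly across cell lines.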

Tested on: WM3526
Assay: cleaved PARP positive nuclei fraction relative to DMSO control; melanoma cells; higher = more apoptosis
Settings: library dose: low library concentration; 72 h

| Structure (SMILES) | cleaved PARP positive nuclei fraction [%] |
| --- | --- |
| C/C(O)=C(\C#N)C(=O)Nc1cc(Br)ccc1Br + O=C(Oc1ccc([N+](=O)[O-])cc1)N1CCC(C(O)(c2ccc3c(c2)OCO3)c2ccc3c(c2)OCO3)CC1 [JZL184] (first compound 2 µM, partner dose 1 µM) | 57.8 |
| C[As](C)SC[C@H](NC(=O)CC[C@H](N)C(=O)O)C(=O)NCC(=O)O [Darinaparsin] + Cc1cc(N2CCOCC2)cc2[nH]c(-c3c(NC[C@@H](O)c4cccc(Cl)c4)cc[nH]c3=O)nc12 [BMS536924] (first compound 0.4 µM, partner dose 0.2 µM) | 130 |
| N.N.[Cl][Pt][Cl] [cisplatin] + Clc1ccc(Nc2nnc(Cc3ccncc3)c3ccccc23)cc1 [vatalanib] (first compound 1.6 µM, partner dose 2 µM) | 79.4 |
| C/C(O)=C(\C#N)C(=O)Nc1cc(Br)ccc1Br + O=C1NC(=O)/C(=C/c2ccc(-c3ccc(F)cc3O)o2)S1 [AS252424] (first compound 2 µM, partner dose 1 µM) | 67.1 |
| Cn1cc(C2=C(c3cn(C4CCN(Cc5ccccn5)CC4)c4ccccc34)C(=O)NC2=O)c2ccccc21 [Enzastaurin] + COc1cc2ncnc(Nc3ccc(Oc4ccccc4)cc3)c2cc1OC [SrcI1] (first compound 0.8 µM, partner dose 2 µM) | 67.7 |
| C[C@]1(c2nc3c(C(N)=O)cccc3[nH]2)CCCN1 [Veliparib] + C/C(O)=C(\C#N)C(=O)Nc1cc(Br)ccc1Br [LFM-A13] (first compound 1.4 µM, partner dose 2 µM) | 66.5 |
| N.N.[Cl][Pt][Cl] [cisplatin] + COc1cc(Nc2ncc(F)c(Nc3ccc4c(n3)NC(=O)C(C)(C)O4)n2)cc(OC)c1OC [Tamatinib] (first compound 1.6 µM, partner dose 0.4 µM) | 42.8 |
| N.N.[Cl][Pt][Cl] [cisplatin] + Nc1ncn([C@H]2C[C@H](O)[C@@H](CO)O2)c(=O)n1 [decitabine] (first compound 1.6 µM, partner dose 0.1 µM) | 282 |
| CNC(=O)c1cc(Oc2ccc(NC(=O)Nc3ccc(Cl)c(C(F)(F)F)c3)cc2)ccn1 [sorafenib] + C[As](C)SC[C@H](NC(=O)CC[C@H](N)C(=O)O)C(=O)NCC(=O)O [Darinaparsin] (first compound 0.4 µM, partner dose 0.4 µM) | 20 |

Single entries from the results shown.
Value for Cn1cc(C2=C(c3cn(C4CCN(Cc5ccccn5)CC4)c4ccccc34)C(=O)NC2=O)c2ccccc21 [Enzastaurin] + COc1cc2ncnc(Nc3ccc(Oc4ccccc4)cc3)c2cc1OC [SrcI1] (first compound 0.8 µM, partner dose 2 µM) under cleaved PARP positive nuclei fraction [%]: 67.7
Value for CNC(=O)c1cc(Oc2ccc(NC(=O)Nc3ccc(Cl)c(C(F)(F)F)c3)cc2)ccn1 [sorafenib] + C[As](C)SC[C@H](NC(=O)CC[C@H](N)C(=O)O)C(=O)NCC(=O)O [Darinaparsin] (first compound 0.4 µM, partner dose 0.4 µM) under cleaved PARP positive nuclei fraction [%]: 20

Tested on: WM3619
Assay: as above
Settings: library dose: low library concentration; 72 h

| Structure (SMILES) | cleaved PARP positive nuclei fraction [%] |
| --- | --- |
| COc1ccc(C2=N[C@@H](c3ccc(Cl)cc3)[C@@H](c3ccc(Cl)cc3)N2C(=O)N2CCNC(=O)C2)c(OC(C)C)c1 [Nutlin-3] + Cc1cc(SCc2sc(-c3ccc(C(F)(F)F)c(F)c3)nc2C)ccc1OCC(=O)O [GW0742] (first compound 0.1 µM, partner dose 2 µM) | 79.3 |
| Cn1cc(C2=C(c3cn(C4CCN(Cc5ccccn5)CC4)c4ccccc34)C(=O)NC2=O)c2ccccc21 [Enzastaurin] + O=C(Nc1cccc(Cl)c1)Nc1ncc(CCNc2ncnc3ccsc23)s1 [SNS314] (first compound 0.8 µM, partner dose 0.0008 µM) | 87.1 |
| COc1cc(Nc2ncc(F)c(Nc3ccc4c(n3)NC(=O)C(C)(C)O4)n2)cc(OC)c1OC [Tamatinib] + O=C(Oc1ccc([N+](=O)[O-])cc1)N1CCC(C(O)(c2ccc3c(c2)OCO3)c2ccc3c(c2)OCO3)CC1 [JZL184] (first compound 0.4 µM, partner dose 1 µM) | 86 |
| Cn1cc(C2=C(c3cn(C4CCN(Cc5ccccn5)CC4)c4ccccc34)C(=O)NC2=O)c2ccccc21 [Enzastaurin] + COc1cc(N2CCC(N3CCN(C)CC3)CC2)ccc1Nc1ncc(Cl)c(Nc2ccccc2S(=O)(=O)C(C)C)n1 [NVP-TAE684] (first compound 0.8 µM, partner dose 0.08 µM) | 88.8 |
| N.N.[Cl][Pt][Cl] [cisplatin] + O=C(Oc1ccc([N+](=O)[O-])cc1)N1CCC(C(O)(c2ccc3c(c2)OCO3)c2ccc3c(c2)OCO3)CC1 [JZL184] (first compound 1.6 µM, partner dose 1 µM) | 88.8 |
| Cn1cc(C2=C(c3cn(C4CCN(Cc5ccccn5)CC4)c4ccccc34)C(=O)NC2=O)c2ccccc21 [Enzastaurin] + COc1ccc(Cl)c(Nc2nc3ccccc3nc2NS(=O)(=O)c2cccc(NC(=O)C(C)(C)N)c2)c1 [XL147] (first compound 0.8 µM, partner dose 0.8 µM) | 104 |
| Nc1ncn([C@H]2C[C@H](O)[C@@H](CO)O2)c(=O)n1 [decitabine] + O=C(Oc1ccc([N+](=O)[O-])cc1)N1CCC(C(O)(c2ccc3c(c2)OCO3)c2ccc3c(c2)OCO3)CC1 [JZL184] (first compound 0.1 µM, partner dose 1 µM) | 96.1 |
| Cc1cc(SCc2sc(-c3ccc(C(F)(F)F)c(F)c3)nc2C)ccc1OCC(=O)O + Oc1cc(-c2nc(-c3ccccc3)[nH]c2-c2ccncc2)ccc1Cl [L779450] (first compound 2 µM, partner dose 0.2 µM) | 151 |
| C[C@]12O[C@H](C[C@]1(O)CO)n1c3ccccc3c3c4c(c5c6ccccc6n2c5c31)CNC4=O [Lestaurtinib] + CC(C)CCN1c2nc(Nc3cc(F)c(O)c(F)c3)ncc2N(C)C(=O)C1C [BID1870] (first compound 0.004 µM, partner dose 0.2 µM) | 86 |
| N#CC[C@H](C1CCCC1)n1cc(-c2ncnc3[nH]ccc23)cn1 [ruxolitinib] + C[C@]12O[C@H](C[C@]1(O)CO)n1c3ccccc3c3c4c(c5c6ccccc6n2c5c31)CNC4=O [Lestaurtinib] (first compound 1 µM, partner dose 0.004 µM) | 96.1 |
| C=C(c1ccc(C(=O)O)cc1)c1cc2c(cc1C)C(C)(C)CCC2(C)C [Bexarotene] + O=C(Oc1ccc([N+](=O)[O-])cc1)N1CCC(C(O)(c2ccc3c(c2)OCO3)c2ccc3c(c2)OCO3)CC1 [JZL184] (first compound 2 µM, partner dose 1 µM) | 95.1 |
| COc1ccc(-c2ccc3c(N4CCOCC4)nc(N4C[C@@H](C)O[C@@H](C)C4)nc3n2)cc1CO + O=C(Oc1ccc([N+](=O)[O-])cc1)N1CCC(C(O)(c2ccc3c(c2)OCO3)c2ccc3c(c2)OCO3)CC1 [JZL184] (first compound 0.02 µM, partner dose 1 µM) | 94.5 |
| C[C@@H](Oc1cc(-c2cnn(C3CCNCC3)c2)cnc1N)c1c(Cl)ccc(F)c1Cl [Crizotinib] + Cc1cc(SCc2sc(-c3ccc(C(F)(F)F)c(F)c3)nc2C)ccc1OCC(=O)O [GW0742] (first compound 0.2 µM, partner dose 2 µM) | 92.6 |
| Cn1nnc2c(C(N)=O)ncn2c1=O [temozolomide] + C/C(O)=C(\C#N)C(=O)Nc1cc(Br)ccc1Br [LFM-A13] (first compound 2 µM, partner dose 2 µM) | 322 |
| CNC(=O)c1cc(Oc2ccc(NC(=O)Nc3ccc(Cl)c(C(F)(F)F)c3)cc2)ccn1 [sorafenib] + Cc1cc(SCc2sc(-c3ccc(C(F)(F)F)c(F)c3)nc2C)ccc1OCC(=O)O [GW0742] (first compound 0.4 µM, partner dose 2 µM) | 85.2 |
| Cn1cnc2c(F)c(Nc3ccc(Br)cc3Cl)c(C(=O)NOCCO)cc21 [selumetinib] + C[C@]12O[C@H](C[C@]1(O)CO)n1c3ccccc3c3c4c(c5c6ccccc6n2c5c31)CNC4=O [Lestaurtinib] (first compound 0.015 µM, partner dose 0.004 µM) | 132 |
| CS(=O)(=O)CCNCc1ccc(-c2ccc3ncnc(Nc4ccc(OCc5cccc(F)c5)c(Cl)c4)c3c2)o1 [lapatinib] + O=C(Oc1ccc([N+](=O)[O-])cc1)N1CCC(C(O)(c2ccc3c(c2)OCO3)c2ccc3c(c2)OCO3)CC1 [JZL184] (first compound 0.8 µM, partner dose 1 µM) | 108 |
| Nc1ccn([C@@H]2O[C@H](CO)[C@@H](O)C2(F)F)c(=O)n1 [gemcitabine] + Cc1cc(SCc2sc(-c3ccc(C(F)(F)F)c(F)c3)nc2C)ccc1OCC(=O)O [GW0742] (first compound 0.0004 µM, partner dose 2 µM) | 155 |
| CS(=O)(=O)CCNCc1ccc(-c2ccc3ncnc(Nc4ccc(OCc5cccc(F)c5)c(Cl)c4)c3c2)o1 [lapatinib] + C[As](C)SC[C@H](NC(=O)CC[C@H](N)C(=O)O)C(=O)NCC(=O)O [Darinaparsin] (first compound 0.8 µM, partner dose 0.4 µM) | 80.6 |
| C[C@]1(c2nc3c(C(N)=O)cccc3[nH]2)CCCN1 [Veliparib] + Cc1cc(SCc2sc(-c3ccc(C(F)(F)F)c(F)c3)nc2C)ccc1OCC(=O)O [GW0742] (first compound 1.4 µM, partner dose 2 µM) | 75.3 |
| CN1CCN(c2ccc3nc(-c4c(N)c5c(F)cccc5[nH]c4=O)[nH]c3c2)CC1 [Dovitinib] + O=C(Oc1ccc([N+](=O)[O-])cc1)N1CCC(C(O)(c2ccc3c(c2)OCO3)c2ccc3c(c2)OCO3)CC1 [JZL184] (first compound 0.1 µM, partner dose 1 µM) | 92.7 |
| COC(=O)c1sccc1S(=O)(=O)Nc1ccc(Nc2ccccc2)cc1OC + C/C(O)=C(\C#N)C(=O)Nc1cc(Br)ccc1Br [LFM-A13] (first compound 1 µM, partner dose 2 µM) | 262 |
